PubChem BioAssay AID1053208 – Peter MacCallum Cancer Centre, 2014
Shown is an unselected part of about 17,000 reagents. In the full data, 788 (4.7%) were called active. 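Calls rest on z-score classes alone; an extra cut-off of viability at most 70% of control was not applied to them.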 A number with no mark means an inactive call. Reagents against one gene are numbered here.

Assay: 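Find knock-downs that sensitise mouse osteosarcoma cells to doxorubicin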 (primary screen)
System: mouse osteosarcoma cells, early-passage culture from an engineered mouse model of fibroblastic bone tumour
Knock-down reagent: siRNA pool against mouse genes, 40 nM
Duration: about 120 h (48 h before drug, then 72 h with drug)
Treatment: doxorubicin 100 nM for 72 h, roughly 30-40% inhibitory dose
Measured: 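Viability read as ATP luminescence after 72 h of 100 nM doxorubicin or none, duplicate wells averaged, scaled to non-targeting siRNA, then expressed as robust z-scores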
Scale: viability z-score with doxorubicin and doxorubicin viability vs non-targeting: higher = more viable cells under doxorubicin; viability z-score without drug: higher = more viable cells with knock-down alone; z-score of drug to no-drug ratio: higher = less drug sensitisation by knock-down
Call rule: 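Called active if knock-down leaves viability unchanged without drug (z within -2 to 2) but lowers it with doxorubicin (z at or under -2)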

Gene | reagent no. | combined z-score class | viability z-score with doxorubicin | viability z-score without drug | z-score of drug to no-drug ratio | doxorubicin viability vs non-targeting
Proser1 (GeneID 212127) | 1 | high cell count without drug only | 0.9 | 2.02 | -0.34 | 1.02
Ifnb1 (GeneID 15977) | 1 | no change with or without drug | 0.67 | 0.17 | 0.67 | 1
Zfp281 (GeneID 226442) | 1 | no change with or without drug | -1.01 | 1.18 | -1.69 | 0.85
Pdgfrb (GeneID 18596) | 1 | no change with or without drug | 0.11 | -0.51 | 0.56 | 0.95
Mmp19 (GeneID 58223) | 1 | no change with or without drug | 0.22 | 0.84 | -0.22 | 0.96
Apob (GeneID 238055) | 1 | no change with or without drug | -0.56 | 0.84 | -1.01 | 0.89
Gjc2 (GeneID 118454) | 1 | no change with or without drug | 0.79 | -0.51 | 1.35 | 1.01
Vgll4 (GeneID 232334) | 1 | no change with or without drug | 0.45 | -0.51 | 1.01 | 0.98
Ceacam9 (GeneID 26368) | 1 | low cell count with doxorubicin only (active) | -2.25 | -1.52 | -1.35 | 0.74
Smc5 (GeneID 226026) | 1 | low cell count with doxorubicin only (active) | -2.47 | -0.84 | -2.02 | 0.72
Amelx (GeneID 11704) | 1 | no change with or without drug | 1.35 | 0.34 | 1.24 | 1.06
Hacd3 (GeneID 57874) | 1 | no change with or without drug | -0.79 | 0.67 | -1.12 | 0.87
Tnnc2 (GeneID 21925) | 1 | no change with or without drug | -0.9 | 0.67 | -1.24 | 0.86
Cdadc1 (GeneID 71891) | 1 | no change with or without drug | 0.11 | -0.51 | 0.56 | 0.95
Pwwp3a (GeneID 68114) | 1 | low cell count with doxorubicin only (active) | -2.7 | 0.17 | -2.81 | 0.7
Hcfc1r1 (GeneID 353502) | 1 | no change with or without drug | -0.22 | 0.17 | -0.22 | 0.92
Pgrmc2 (GeneID 70804) | 1 | no change with or without drug | -1.35 | -0.84 | -0.79 | 0.82
Scn10a (GeneID 20264) | 1 | no change with or without drug | -0.22 | -0.84 | 0.45 | 0.92
Myh8 (GeneID 17885) | 1 | no change with or without drug | -1.12 | -1.52 | 0 | 0.84
Cops7a (GeneID 26894) | 1 | no change with or without drug | 0.22 | 0.17 | 0.22 | 0.96
BC006583 | 1 | no change with or without drug | 0.9 | 1.18 | 0.22 | 1.02
Mcmbp (GeneID 210711) | 1 | no change with or without drug | -1.01 | -1.18 | -0.11 | 0.85
Tmem234 (GeneID 76799) | 1 | no change with or without drug | -0.56 | 0.17 | -0.56 | 0.89
Prmt7 (GeneID 214572) | 1 | no change with or without drug | -1.12 | 0.17 | -1.12 | 0.84
Atg2b (GeneID 76559) | 1 | no change with or without drug | -0.45 | -0.84 | 0.22 | 0.9
Atg2b (GeneID 76559) | 2 | no change with or without drug | 1.01 | 0.84 | 0.56 | 1.03
Ptcra (GeneID 19208) | 1 | high cell count with and without drug | 2.7 | 2.02 | 1.35 | 1.18
Ice2 (GeneID 93697) | 1 | no change with or without drug | 1.35 | -0.17 | 1.69 | 1.06
Arhgap10 (GeneID 78514) | 1 | no change with or without drug | 0.11 | -1.01 | 1.01 | 0.95
Ptpn13 (GeneID 19249) | 1 | no change with or without drug | 0.11 | -0.51 | 0.56 | 0.95
Pclaf (GeneID 68026) | 1 | low cell count with doxorubicin only (active) | -2.36 | -0.84 | -1.91 | 0.73
Wdr33 (GeneID 74320) | 1 | no change with or without drug | -0.9 | -1.01 | -0.11 | 0.86
Or12d17 (GeneID 258832) | 1 | no change with or without drug | 0 | -0.67 | 0.56 | 0.94
Ccr5 (GeneID 12774) | 1 | no change with or without drug | -0.79 | 1.01 | -1.35 | 0.87
